Assay results taken from patent US12391685B2, “Inhibitors of RNA-guided nuclease target binding and uses thereof” (THE BROAD INSTITUTE, INC., priority 2018, dated 2025).

System: eGFP protein expression
Test: Western blot analysis of eGFP protein expression in U2OS.eGFP.PEST cells
Format: cell-based
Details: 24 h incubation

SMILES | effect on eGFP expression levels
COc1ccc(-c2ccc3c(c2)[C@H]2[C@H](CCN2Cc2ccncc2)[C@@H](CO)N3)cc1 [BRD5779, ((3aR,4S,9bR)-8-(4-Methoxyphenyl)-1-(pyridin-4-ylmethyl)-2,3,3a,4,5,9b-hexahydro-1H-pyrrolo[3,2-c]quinolin-4-yl) methanol] | No change
OC[C@H]1Nc2ccc(-c3cccc(F)c3)cc2[C@H]2[C@@H]1CCN2Cc1ccncc1 [BRD7087, ((3aR,4S,9bR)-8-(3-Fluorophenyl)-1-(pyridin-4-ylmethyl)-2,3,3a,4,5,9b-hexahydro-1H-pyrrolo[3,2-c]quinolin-4-yl) methanol] | No change
